Literature values in US11414689B2, “Hydrolysis of steviol glycosides by beta-glucosidase” (Conagen Inc., priority 2017, dated 2022).
Some of these results come from one statement about several compounds together. For at least one compound, name, drawing or mass did not settle the structure.

Conditions: relative to table sugar; cited from earlier work

Row | Compound | sweetness relative to sucrose
1 | C=C1C[C@@]23CC[C@H]4[C@@](C)(CCC[C@@]4(C)C(=O)O[C@@H]4O[C@H](CO)[C@@H](O)[C@H](O)[C@H]4O)[C@@H]2CC[C@]1(O[C@@H]1O[C@H](CO)[C@@H](O)[C@H](O[C@@H]2O[C@H](CO)[C@@H](O)[C@H](O)[C@H]2O)[C@H]1O[C@@H]1O[C@H](CO)[C@@H](O)[C@H](O)[C@H]1O)C3 [Reb A, rebaudioside A] | 250-450 times sweeter than sucrose
2 | C=C1C[C@@]23CC[C@H]4[C@@](C)(CCC[C@@]4(C)C(=O)O[C@@H]4O[C@H](CO)[C@@H](O)[C@H](O)[C@H]4O[C@@H]4O[C@H](CO)[C@@H](O)[C@H](O)[C@H]4O)[C@@H]2CC[C@]1(O[C@@H]1O[C@H](CO)[C@@H](O)[C@H](O)[C@H]1O[C@@H]1O[C@H](CO)[C@@H](O)[C@H](O)[C@H]1O)C3 [Reb E, rebaudioside E] | 250-450 times sweeter than sucrose
